For one substance, binding results are on record in article PMC6204060.

This assay concerns the target T1, BD-AtBI-1 (full-length Arabidopsis Bax inhibitor-1 in pGBKT7) (Arabidopsis (Arabidopsis thaliana)) (UniProt Q9LD45).
T1 sequence: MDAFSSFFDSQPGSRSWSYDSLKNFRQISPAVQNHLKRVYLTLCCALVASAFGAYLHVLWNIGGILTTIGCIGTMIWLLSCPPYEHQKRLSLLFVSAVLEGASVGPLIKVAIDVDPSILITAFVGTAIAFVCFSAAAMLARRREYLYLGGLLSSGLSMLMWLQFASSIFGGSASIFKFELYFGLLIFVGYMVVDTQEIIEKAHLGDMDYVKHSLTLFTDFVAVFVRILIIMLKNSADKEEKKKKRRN
Description: two-hybrid; pairs of BD (pGBKT7) and AD (pGADT7) fusions coexpressed in AH109 yeast cells; selected on SD/-Trp-Leu-His-Ade or SD/-Trp-Leu-His-Ade/X-alpha-gal medium for 5 days.

These are yes or no findings as the source states them, for the method shown. Sequences can lack the tags named with a protein.

For “AD-ROF1-TPR (TPR region of ROF1 in pGADT7) (Arabidopsis (Arabidopsis thaliana)) (domain or fragment)”, the binding result was “no binding”.
